US9090652B2, “Bile acid derivatives as FXR ligands for the prevention or treatment of FXR-mediated diseases or conditions” (Intercept Pharmaceuticals, Inc., priority 2006, dated 2015)
Some entries share one result that the patent states for a list of compounds.

System: Intestinal bacteria (human stools cultures)
Test: Metabolic stability in human stools culture (7α-dehydroxylation)
Conditions: human stool cultures, after 24 hour, 0.05 mM

With `CC[C@H]1[C@@H](O)C2C3CCC(C(C)CCOS(=O)(=O)[O-])[C@@]3(C)CCC2[C@@]2(C)CC[C@@H](O)C[C@@H]12.[Na+]` (stereo partly drawn) [INT-1103, 3α,7α,23-trihydroxy-6α-ethyl-24-nor-5β-cholan-23-sulphate sodium salt] as the compound, how does the Compound recovered unmodified read?
Its Compound recovered unmodified is “more than 85%”.
